Out of some 300,000 compounds screened, about 3,700 (1.2%) were called active. Inconclusive results, whose numbers are uncertain, are shown with a selection of clear calls. Calls come from the whole dose curve; tested in HEK293 cells. Where the call is inconclusive, the potency comes from a doubtful curve fit.
assay: qHTS for Inhibitors of binding or entry into cells for Lassa Virus; conditions: Lassa virus pseudotype entry inhibition, cell reporter; series mostly up to 37.9 µM; note: nearly all actives have a fitted effect of over 50% in size
Potency is the fitted concentration of half-maximal effect.

Row | SMILES | Potency
1 | Cc1ccc(C)c(N(CC(=O)Nc2cc(Cl)ccc2Oc2ccccc2)S(C)(=O)=O)c1 | inconclusive: 20 µM [inhibitor, partial curve, poor fit]
2 | COc1ccccc1CNC(=O)c1cn(C)c2ccc(S(=O)(=O)N3CCC(C)CC3)cc2c1=O | inconclusive: 35.5 µM [activator, single point]
3 | O=C(OCCN1C(=O)c2cccc3c(N4CCOCC4)ccc(c23)C1=O)c1ccc(Cl)cc1 | inconclusive: 2.51 µM [inhibitor, partial curve, poor fit]
4 | O=C(Nc1ccc(N2CCOCC2)c(Cl)c1)c1ccco1 | inconclusive: 35.5 µM [inhibitor, single point]
5 | COC(=O)CC1(C(=O)OC)Oc2ccc(Br)cc2C(=O)N1c1ccc(Br)cc1Cl (centres undefined) | inconclusive: 0.891 µM [inhibitor, full curve, poor fit]
6 | CCC(=O)NC(=S)Nc1ccccc1F | inactive
7 | COc1cccc(OC)c1-c1nn2c(-c3ccco3)nnc2s1 | inactive
8 | Cc1sc(NC(=O)C2CCCO2)c(C(N)=O)c1C (centres undefined) | inactive
9 | CNS(=O)(=O)c1cccc(C(=O)OCC(=O)c2cc(C)n(CC3CCCO3)c2C)c1 (centres undefined) | active: 12.6 µM
10 | COc1ccc(CCNC2CCCCCC2)cc1 | inconclusive: 11.2 µM [inhibitor, partial curve]
11 | CC(=O)N1c2c(cc(Br)cc2S(=O)(=O)N2CCN(c3ccccn3)CC2)CC1C (centres undefined) | inconclusive: 29.1 µM [inhibitor, single point]
12 | COc1cc2c(cc1OC)-c1nnc(C)n1C1(CCCC1)C2 | inactive
13 | Cc1ccc(Oc2cc(C)nc(-c3ccccc3O)n2)cc1 | inconclusive: 2.51 µM [activator, partial curve, poor fit]
14 | NC(=O)c1c(NC(=O)c2noc3c2CCCC3)sc2c1CCCC2 | inconclusive: 35.5 µM [activator, partial curve, poor fit]
15 | O=C(c1ccco1)N1CCC(c2nc3c(nnn3Cc3ccc(F)cc3)c(=O)[nH]2)CC1 | inconclusive: 3.55 µM [inhibitor, partial curve, poor fit]
16 | CCC(=O)Nc1ccc(C(=O)N/N=C/c2cccnc2)cc1 | inactive
17 | Cc1cccc(/C=c2\s/c(=C\C(=O)C(C)(C)C)[nH]c2=O)c1 | inconclusive: 8.91 µM [inhibitor, partial curve]
18 | COc1ccc(CC(=O)Nc2cccc(-c3nnc(-c4ccc(C)cc4)o3)c2)cc1OC | inconclusive: 4.61 µM [inhibitor, full curve, poor fit]
19 | Cc1nn(C)cc1CN1CCCC(C(=O)c2ccc(-c3ccccc3)cc2)C1 (centres undefined) | inconclusive: 11.2 µM [inhibitor, partial curve, poor fit]
20 | O=C(N/N=C/c1ccc([N+](=O)[O-])o1)c1cc(-c2cccc(Br)c2)nc2ccccc12 | inconclusive: 15.8 µM [inhibitor, single point]
21 | O=C(c1cc(C2CC2)nn1-c1ccccc1)N1CCN(S(=O)(=O)c2c(F)cccc2F)CC1 | inconclusive: 22.4 µM [inhibitor, single point]
22 | CCOC(=O)C1=C(c2ccccc2)N=c2s/c(=C\c3ccco3)c(=O)n2C1c1cccs1 (centres undefined) | inconclusive: 6.51 µM [inhibitor, full curve, poor fit]

Pulled one by one from the entries so far, 3 records:
Row | SMILES | Potency
3 | O=C(OCCN1C(=O)c2cccc3c(N4CCOCC4)ccc(c23)C1=O)c1ccc(Cl)cc1 | inconclusive: 2.51 µM [inhibitor, partial curve, poor fit]
13 | Cc1ccc(Oc2cc(C)nc(-c3ccccc3O)n2)cc1 | inconclusive: 2.51 µM [activator, partial curve, poor fit]
16 | CCC(=O)Nc1ccc(C(=O)N/N=C/c2cccnc2)cc1 | inactive

More structures follow.

Row | SMILES | Potency
23 | COc1cccc(N(C(=O)CCl)C(C(=O)NCCc2ccccc2)c2cccs2)c1 (centres undefined) | inconclusive: 22.4 µM [inhibitor, single point]
24 | COc1ccc(NC(=O)c2cc(-c3ccccn3)nc3c(C)cc(C)cc23)c(C)c1 | inactive
25 | O=C(Cc1ccccc1)Nc1ccc(NC(=O)c2cccc(Cl)c2)cc1 | inconclusive: 35.5 µM [inhibitor, single point]
26 | COc1ccc(C2=NOC(C(=O)NCc3ccc(F)cc3)C2)cc1OC (centres undefined) | active: 0.82 µM
27 | Cc1cc(N(CCCl)CCCl)ccc1C=NNC(=O)Cc1cc(=O)oc2cc(O)ccc12 | inconclusive: 3.55 µM [inhibitor, partial curve, poor fit]
28 | COc1cc(Nc2nc(-c3ccccc3)c3cc(C)ccc3n2)cc(OC)c1OC | inconclusive: 10 µM [inhibitor, partial curve]
29 | CC(=O)c1ccc(NS(=O)(=O)c2c(C)cc(C)cc2C)cc1 | inconclusive: 8.91 µM [inhibitor, partial curve, poor fit]
30 | O=C(Cn1nnc(-c2ccccc2Cl)n1)Nc1cccc(S(=O)(=O)N2CCCC2)c1 | inconclusive: 25.1 µM [inhibitor, single point]
31 | COc1cc(C(=O)NCc2cccc3ccccc23)ccc1OCc1ccccc1 | inconclusive: 0.0041 µM [inhibitor, full curve, poor fit]
32 | CCn1c2ccccc2c2cc(NC(=O)COc3cc(C)c(Cl)c(C)c3)ccc21 | inactive
33 | Fc1ccc(/C=N/Nc2ccccn2)cc1 | inconclusive: 6.31 µM [activator, partial curve]
34 | CC(Oc1ccccc1)c1nnc(SCC(=O)NC2CC2)n1C (centres undefined) | inactive
35 | CCOC(=O)Cn1nc(C)c(NC(=O)COc2ccc(OC)cc2)c1C | inconclusive: 6.31 µM [inhibitor, single point]
36 | N=c1n(Cc2ccccc2)c2ccccc2n1CC(O)c1ccccc1 (centres undefined) | inconclusive: 29.1 µM [inhibitor, single point]
37 | CCCN1CCC[C@@H]2Cc3[nH]ncc3C[C@H]21 | inconclusive: 0.0366 µM [inhibitor, full curve, poor fit]
38 | CCC(CC)C(=O)NCCN1CCN(C(=O)C(CC)CC)CC1 | inconclusive: 6.31 µM [activator, single point]
39 | CC(C)(C)OC(=O)N1CCC[C@H]1C(=O)N/N=C/c1cccc2cccnc12 | inconclusive: 35.5 µM [inhibitor, single point]
40 | CCOc1cc2[nH]c(=O)n(CCC(=O)N3CCN(c4cccc(Cl)c4)CC3)c(=O)c2cc1OCC | inactive
41 | COc1ccc2oc(=O)c(C(=O)NCCc3c(C)[nH]c4c(C)cccc34)cc2c1 | inconclusive: 3.16 µM [inhibitor, partial curve, poor fit]
42 | C=CCNC(=O)N1C2=NC(C(=O)OC)=C(C(=O)OC)[C@@H]3N(Cc4ccccc4)c4ccccc4[C@]23C[C@H]1C(=O)OC | inconclusive: 2.66 µM [inhibitor, single point]
43 | Cc1ccc(Sc2c(C=O)c3ccccc3n2C)cc1 | inconclusive: 14.1 µM [inhibitor, partial curve]
44 | COc1ccc(C2=CC(c3ccc4c(c3)OCO4)c3c(c4ccccc4oc3=O)O2)cc1OC (centres undefined) | inconclusive: 2.82 µM [inhibitor, full curve]

Row | SMILES | Potency
45 | CCN(C(=O)CN1C(=O)c2ccc([N+](=O)[O-])cc2C1=O)C1CCS(=O)(=O)C1 (centres undefined) | inconclusive: 25.1 µM [activator, partial curve, poor fit]
46 | COc1ccc(/C=C\c2nc(=O)c3ccccc3o2)cc1 | inconclusive: 35.5 µM [inhibitor, single point]
47 | COc1ccccc1Nc1nnc(SCC(=O)N2CCCC2=O)s1 | inactive
48 | O=C1c2ccccc2S(=O)(=O)N1CC1CC(c2ccccc2)=NO1 (centres undefined) | inconclusive: 3.55 µM [activator, full curve]
49 | Fc1ccc(C2=CCN(C(c3cccs3)c3nnnn3CCc3ccccc3)CC2)cc1 (centres undefined) | inconclusive: 29.1 µM [inhibitor, single point]
50 | Cc1cc(NC(=O)C(Cl)c2ccccc2)no1 (centres undefined) | inconclusive: 8.91 µM [inhibitor, partial curve]
51 | CC1CCc2c(C(=O)NCC3CCCO3)csc2C1 (centres undefined) | inconclusive: 32.6 µM [activator, single point]
52 | CCCN(Cc1cc2cc(C)ccc2[nH]c1=O)C(=O)c1cccc(Cl)c1 | inconclusive: 3.16 µM [inhibitor, single point]
53 | Cc1cc(C)cc(N(C)S(=O)(=O)c2nnc(NC(=O)COc3ccc(C)c(C)c3)s2)c1 | inconclusive: 22.4 µM [inhibitor, single point]
54 | CCCCn1c(N)c(N(CC(C)C)C(=O)CSCc2ccc(Cl)c(Cl)c2)c(=O)[nH]c1=O | inconclusive: 10 µM [inhibitor, partial curve, poor fit]
55 | O=C(c1ccccc1)C1CCN(C(=O)Nc2ccccc2)CC1 | inactive
56 | CCOC(=O)c1cnc(-n2nc(C)cc2C)nc1NCc1ccccc1 | inconclusive: 14.1 µM [inhibitor, single point]
57 | C=CCC1C=CCC(CC=C)N1C(=O)c1ccccc1[N+](=O)[O-] (centres undefined) | inconclusive: 4.47 µM [activator, full curve, poor fit]
58 | O=C(CSc1nnc(NC(=O)c2ccc(F)cc2)s1)NC1CCCC1 | inactive
59 | COc1cc(Br)cc(/C=N/NC(=O)Cc2ccccc2)c1O | active: 12.6 µM
60 | COc1cccc(/C=C/C(=O)OCC(=O)Nc2cccc(S(=O)(=O)N(C)C)c2)c1 | inactive
61 | COc1ccc(/C=N/NC(=O)c2cccs2)c2ccccc12 | inconclusive: 35.5 µM [inhibitor, single point]
62 | CC1CCCC(NC(=O)COC(=O)Cc2ccsc2)C1C (centres undefined) | inconclusive: 25.1 µM [activator, single point]
63 | C=CCN(c1ccc(OC)cc1)S(=O)(=O)c1ccc(Cl)c(C(=O)OCC(=O)c2c(N)n(C)c(=O)n(C)c2=O)c1 | inconclusive: 8.91 µM [inhibitor, partial curve, poor fit]
64 | CCCN(C(=O)C1CCN(S(=O)(=O)c2c(C)noc2/C=C/c2ccc(C)cc2)CC1)c1ccccc1F | inconclusive: 5.62 µM [inhibitor, single point]
